Drawing on PubChem BioAssay AID2685 (National Center for Advancing Translational Sciences (NCATS), 2010), this text covers cell number change and AC50 for 44 compounds.

The other results are listed elsewhere or left out. The main result of the screen is listed elsewhere. These columns were measured beside it and carry no call. Compounds called inactive in the main read-out are mostly missing here. Words in brackets tell the shape of the fitted curve; partial curves, single points and poor fits give uncertain potencies.

Broadly, the AC50 is the concentration at which the activity in the assay is half-maximal. Low readings indicate activity at low concentration, high ones activity only at high concentration.

This assay in a line: qHTS Assay for Lipid Storage Modulators in Drosophila S3 Cells.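 For cell number change: cells counted by Cell Tracker Red CMTPX staining in the red channel.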 Conditions: BODIPY lipid droplet fluorescence, 18-24 h; for cell number change: measured here: cell count max response, cells fed with added oleic acid. Put shortly: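 Drosophila S3 cells got compounds at several concentrations plus oleic acid (400 uM solution). Laser-scanning cytometry with 488 nm excitation read lipid droplets at 500-530 nm and cells at 575-640 nm. Percent activity was relative to 20 uM Triacsin C.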
In general terms: In qHTS, concentration-response curves come from the screen itself.

[1] abbreviates: measured here: lipid fluorescence (Fed channel) AC50, cells fed with added oleic acid.
The mark [2] stands for this setting: measured here: cell number channel AC50, cells fed with added oleic acid.

For `CCOC(=O)C(N)CSC1CC(=O)N(CCc2ccccc2)C1=O` (centres undefined), the cell number change is -5.25%. Also, the concentration at half-maximal activity (AC50) under setting [1] is 16.4 µM [falling, partial curve].

As to `O=C(Nc1cccc(NC(=O)c2ccco2)c1)c1ccccc1`, the cell number change turned out to be 17.9%. The AC50 under setting [1] was 5.17 µM [falling, single point].

For the compound `COC(=O)c1sccc1NC(=O)Nc1ccc(OC)cc1OC`, the cell number change is -21.2%.

Regarding `CNc1nc(NCc2ccccc2)c2ccccc2n1`, the cell number change is 3.28%.

As for `O=C(c1ccc(F)cc1F)N1CCCC(c2nc(-c3cccs3)no2)C1` (centres undefined), the cell number change came to 4.78%.

As to `COc1ccccc1N1CC(C(=O)Nc2cc(C(F)(F)F)ccc2N2CCCC2)CC1=O` (centres undefined), the cell number change is 58.6%. Also, the AC50 under setting [2] is 29.1 µM [rising, single point].

Consider `O=C(COC(=O)COc1ccc2ccccc2c1)NCC(F)(F)F`, for which the cell number change stood at 49.6%.

For the compound `CC(C(=O)N1CCN(Cc2ccccc2)CC1)n1ncn2cccc2c1=O` (centres undefined), the cell number change was determined as 19.9%. Moreover, the AC50 under setting [1] is 29.1 µM [rising, single point].

On to `COc1ccc(OC)c(NC(=O)c2cc3sccc3n2C)c1`, for which the cell number change is -0.32%.

With `COc1cccc(C(=O)Nc2ccc(NC(=O)c3cc4ccccc4o3)c(OC)c2)c1`, the cell number change was -16.5%. In addition, the AC50 under setting [1] was 4.11 µM [falling, full curve].

For the compound `Cc1cc(-c2ccc(Br)s2)nc(-n2cccc2)n1`, the cell number change was -13.5%.

`CCOc1ccc(C(=O)CC(Sc2ccc(C)cc2)C(=O)O)cc1` (centres undefined): the cell number change was -5.23%. Further, the AC50 under setting [1] is 11.6 µM [falling, partial curve, poor fit].

Regarding `Cc1ccc(C(c2c(O)nc3n(c2=O)CCS3)c2c(O)nc3n(c2=O)CCS3)cc1`, the cell number change is -83.3%. In addition, the half-maximal activity concentration (AC50) under setting [1] is 0.103 µM [falling, full curve, poor fit].

Turning to `CCn1c2ccc(/C(C)=N\O)cc2c2cc(/C(C)=N\O)ccc21`, the cell number change was -14.9%.

Consider `CC1(C2CC2)NC(=O)N(CC(=O)Nc2ccc(Cl)c([N+](=O)[O-])c2)C1=O` (centres undefined), for which the cell number change is -20.8%.

In the case of `CC(=O)c1ccc(OC(C)c2nc3ccccc3s2)cc1` (centres undefined), the cell number change was -8.33%. Besides, the AC50 under setting [1] was 0.58 µM [rising, single point].

As for `Cn1c(=O)c2c(nc(NCc3ccco3)n2CC(O)COc2ccccc2)n(C)c1=O` (centres undefined), the cell number change was -16.6%.

Turning to `CCCC1(c2ccccc2)NC(=O)N(CC(=O)NCc2ccc(OC)cc2)C1=O` (centres undefined), under setting [1], the AC50 is 29.1 µM [rising, single point].

For `COc1cc2c(cc1OC)C(c1ccc(Br)cc1)CC(=O)N2` (centres undefined), the cell number change is -20.6%. Besides, under setting [1], the AC50 is 20.6 µM [falling, single point].

For `CCCOc1ccc(N2C(=O)CC(N(CCc3ccc(OC)c(OC)c3)C(=O)c3ccccc3)C2=O)cc1` (centres undefined), the cell number change is -9.05%. Moreover, the AC50 under setting [1] is 2.59 µM [falling, partial curve].

As for `Cc1ccccc1OCC(=O)OCC(=O)Nc1ccc2c(c1)OCCO2`, the cell number change worked out at 16%. For the same compound, the AC50 under setting [1] was 23.1 µM [rising, single point].

For `COc1ccc(NC(=O)CN2CCC3(O)CCCCC3C2c2ccccc2OC)cc1` (centres undefined), the cell number change was -51.2%. Moreover, under setting [2], the AC50 was 29.1 µM [falling, single point].

With `C=C(C)c1cccc(C(C)(C)NC(=O)Nc2ccc(Cl)cn2)c1`, the cell number change was -39%. Under setting [2], the half-maximal activity concentration (AC50) is 14.6 µM [falling, single point].

Regarding `O=C(CCC1CCCC1)N=C1SC2CS(=O)(=O)CC2N1c1ccccc1F` (centres undefined), the cell number change worked out at 31.8%. Under setting [2], the concentration at half-maximal activity (AC50) was 29.1 µM [rising, single point].

On to `CCC(C)(C)n1nnnc1CN1CCN(c2nc3cc(OC)ccc3cc2C#N)CC1`, for which the cell number change was -1.43%. Also, the AC50 under setting [1] is 0.92 µM [rising, full curve].

In the case of `Cc1cc(NC(=O)CSc2nnc(COc3cccc(C)c3C)n2Cc2ccco2)no1`, the AC50 under setting [1] was 0.731 µM [falling, single point].

With `NNC(=O)c1ccc(COc2ccc3ccccc3c2)cc1`, the cell number change is 2.95%. The AC50 under setting [1] was 0.116 µM [rising, full curve, poor fit].

Consider `O=C(CCC1CCCC1)NCCCN1CCOCC1`, for which the cell number change is -23.5%. For the same compound, the AC50 under setting [2] was 0.184 µM [falling, full curve, poor fit]. Also, the AC50 under setting [1] is 20.6 µM [falling, partial curve].

As to `CCCCC(=O)Nc1nnc(-c2ccco2)o1`, the cell number change turned out to be 11.1%.

With `CC(=O)c1cccc(S(=O)(=O)N2CCCC(c3nc(-c4ccc(C)o4)no3)C2)c1` (centres undefined), the cell number change was 8.22%.

On to `NNC(=O)COc1ccc(-c2nccc(-c3ccc(F)cc3)n2)cc1`, for which the cell number change was -4.82%. Moreover, the half-maximal activity concentration (AC50) under setting [1] was 0.0651 µM [rising, full curve, poor fit].

On to `CC1=NN(c2ccc(C)cc2)C(=O)/C1=C/c1ccc(-c2cc([N+](=O)[O-])ccc2O)o1`, for which the cell number change is -45.6%. For the same compound, under setting [2], the AC50 was 1.64 µM [falling, partial curve, poor fit].

On to `O=C(O)CC(c1ccc(OC2CCCC2)cc1)N1C(=O)c2ccccc2C1=O` (centres undefined), for which the cell number change was found to be 41.4%. Moreover, under setting [1], the AC50 is 0.58 µM [falling, single point].

As for `O=C(c1cc(-c2ccco2)nc2ccccc12)N1CCN(Cc2ccccc2)CC1`, the cell number change was -1.16%.

On to `CC(=O)N(c1ccc(Br)cc1)C1C=CS(=O)(=O)C1` (centres undefined), for which the cell number change was -53.6%. For the same compound, the AC50 under setting [2] was 13 µM [falling, partial curve]. Besides, the AC50 under setting [1] is 18.4 µM [falling, partial curve].

For the compound `Cc1cc2c3c(c1C)C1(C(=O)N3C(C)(C)CC2C)C(C#N)=C(N)Oc2cc(O)ccc21` (centres undefined), the cell number change was -53%. Further, the AC50 under setting [2] was 3.66 µM [rising, single point]. Moreover, the AC50 under setting [1] was 4.61 µM [rising, partial curve].

As for `CCN(c1ccc(OC)cc1)S(=O)(=O)c1nnc(NC(=O)CC(C)C)s1`, the cell number change was 41.1%. The AC50 under setting [2] is 25.9 µM [rising, partial curve, poor fit].

Regarding `CCOCCNC(=O)c1ccccc1C(=O)NCCOCC`, the cell number change came out at 6.81%. Further, the AC50 under setting [1] is 0.731 µM [falling, full curve].

In the case of `COc1ccc(CNC(=O)CN(C(=O)c2snc(C(N)=O)c2N)c2ccc(F)cc2)cc1`, the cell number change came out at 0.427%.

For the compound `N#Cc1ccccc1CSc1ccc(-c2nc3ccccc3[nH]2)cn1`, the cell number change is -85%.

With `COCc1c(C(=O)NC2CCCCC2)sc2cccc(F)c12`, the cell number change was -0.137%. Also, under setting [1], the AC50 was 29.1 µM [falling, single point].

Regarding `COc1ccccc1N1CCN(CC(=O)Nc2cccc(F)c2)CC1`, the cell number change came to 19.5%. Moreover, under setting [1], the AC50 is 10.3 µM [rising, partial curve].

Regarding `O=C(CCN1CCN(c2ccccc2)CC1)Nc1ccc(OCc2ccccc2)cc1`, the cell number change was -4.52%.

Turning to `O=C(O)CN1CCN(Cc2ccc(F)cc2Cl)C1=O`, the cell number change amounted to 15%. The AC50 under setting [1] is 1.46 µM [falling, partial curve].
